Laboratory results published in PubChem BioAssay AID248 (DTP/NCI, 2004).
The list does not hold the whole screen: it gathers tests that were run many times, whatever their T/C, doses with no T/C, and many T/C values between a quarter and a half above the control. Further doses and runs are listed elsewhere. T/C is the treated group as % of the vehicle group. Some entries give survivors of the animals treated and no T/C: the source holds a T/C of zero for them, seemingly a mark for toxic or unscored doses. Some doses without a T/C left all or most animals alive at the check, yet need not have been tolerated: the source hardly ever lists a survival T/C far under the control, and the zero likely stands for such cases as well. Counts of survivors are from the toxicity check (mostly the fifth day) where no day follows; animals may have died later. Schedules are NCI's codes, read here as Q, the interval in days (D) or hours (H), X, the number of doses. Some entries hold several experiments; the values are given in rising order. Some schedule codes hold Z or #, which are not explained here. Where survival is the endpoint, this PubChem deposit counts one and a half times the control or more as active, and values a quarter to a half above the control carry no call in these data; other NCI protocols may use other cut-offs. Some T/C values are followed by the survivors on the day toxicity was checked, most often the fifth; without a count, all were alive then. Brackets with × give the number of equal values in this list.

Test system: L1210 leukemia ip in BDF1 mice, survival T/C
Assay: NCI In Vivo Anticancer Drug Screen. Data for tumor model L1210 Leukemia (intraperitoneal) in B6D2F1 (BDF1) mice
Conditions: T/C endpoint: mean survival time, higher T/C = longer survival

In the case of `CC[C@](O)(C(=O)O)c1cc2n(c(=O)c1CO)Cc1cc3ccccc3nc1-2`, the T/C (dose: 0.5 mg/kg/injection, schedule: Q01DX010 (ip), vehicle: saline) is reported as 138 % of control, the T/C (dose: 0.5 mg/kg/injection, schedule: Q01DX010 (oral), vehicle: saline) is reported as 125 % of control and the T/C (dose: 0.5 mg/kg/injection, schedule: Q01DX Z (ip), vehicle: saline) is reported as 127 % of control. For the same molecule, the T/C (dose: 0.5 mg/kg/injection, schedule: Q#A X Z (ip), vehicle: saline) was 130 % of control, the T/C (dose: 1.0 mg/kg/injection, schedule: Q01DX010 (ip), vehicle: saline) was 149 % of control and the T/C (dose: 1.0 mg/kg/injection, schedule: Q01DX010 (iv), vehicle: saline) was 129 % of control. For the same molecule, the T/C (dose: 1.0 mg/kg/injection, schedule: Q01DX Z (ip), vehicle: saline) was 125 and 140 % of control, the T/C (dose: 1.3 mg/kg/injection, schedule: Q01DX009 (ip), vehicle: saline) was 115, 120, 125, 134 % of control and the T/C (dose: 1.5 mg/kg/injection, schedule: Q#A X Z (ip), vehicle: saline) was 138 % of control. The T/C (dose: 2.0 mg/kg/injection, schedule: Q01DX009 (ip), vehicle: saline, evaluated on day 30) was 133 % of control, the T/C (dose: 2.0 mg/kg/injection, schedule: Q01DX009 (ip), vehicle: saline, evaluated on day 40) was 137 % of control and the T/C (dose: 2.0 mg/kg/injection, schedule: Q01DX009 (oral), vehicle: water) was 125 % of control. For the same molecule, the T/C (dose: 2.0 mg/kg/injection, schedule: Q01DX010 (iv), vehicle: saline) was 148 % of control, the T/C (dose: 2.0 mg/kg/injection, schedule: Q01DX015 (oral), vehicle: saline) was 146 % of control and the T/C (dose: 2.0 mg/kg/injection, schedule: Q01DX Z (im), vehicle: saline) was 143 % of control. For the same molecule, the T/C (dose: 2.0 mg/kg/injection, schedule: Q01DX Z (ip), vehicle: saline) was 107, 133, 163, 178 % of control (2×), the T/C (dose: 2.0 mg/kg/injection, schedule: Q01DX Z (oral), vehicle: saline) was 125 (2×) and 147 % of control and the T/C (dose: 2.5 mg/kg/injection, schedule: Q01DX009 (ip), vehicle: saline) was 131 (2×), 138, 141 % of control. The T/C (dose: 3.0 mg/kg/injection, schedule: Q01DX006 (iv), vehicle: saline) was 132 % of control, the T/C (dose: 3.0 mg/kg/injection, schedule: Q01DX015 (oral), vehicle: saline) was 144 % of control and the T/C (dose: 3.0 mg/kg/injection, schedule: Q01DX Z (im), vehicle: saline) was 138 % of control. For the same molecule, the T/C (dose: 3.0 mg/kg/injection, schedule: Q01DX Z (oral), vehicle: saline) was 135 % of control, the survivor count (dose: 3.35 mg/kg/injection, schedule: Q#A X Z (ip), vehicle: saline) was 6 of 6 and the T/C (dose: 4.0 mg/kg/injection, schedule: Q01DX009 (ip), vehicle: saline) was 133 % of control. The T/C (dose: 4.0 mg/kg/injection, schedule: Q01DX010 (iv), vehicle: saline) was 148 % of control, the T/C (dose: 4.5 mg/kg/injection, schedule: Q01DX Z (sc), vehicle: saline) was 135 % of control and the T/C (dose: 5.0 mg/kg/injection, schedule: Q01DX009 (ip), vehicle: saline) was 111, 113, 153, 161 % of control. The T/C (dose: 5.0 mg/kg/injection, schedule: Q## X003 (ip), vehicle: saline) was 132 % of control, the T/C (dose: 5.0 mg/kg/injection, schedule: Q## X003 (oral), vehicle: saline) was 127 % of control and the survivor count (dose: 6.0 mg/kg/injection, schedule: Q01DX Z (oral), vehicle: saline) was 5 of 6. For the same molecule, the T/C (dose: 6.0 mg/kg/injection, schedule: Q03DX Z (ip), vehicle: saline) was 129 and 147 % of control, the T/C (dose: 6.5 mg/kg/injection, schedule: Q01DX006 (iv), vehicle: saline) was 126 % of control and the survivor count (dose: 6.5 mg/kg/injection, schedule: Q01DX Z (im), vehicle: saline) was 5 of 6. For the same molecule, the survivor count (dose: 6.5 mg/kg/injection, schedule: Q01DX Z (sc), vehicle: saline) was 6 of 6, the survivor count (dose: 8.0 mg/kg/injection, schedule: Q01DX009 (oral), vehicle: water) was 10 of 10 and the survivor count (dose: 8.0 mg/kg/injection, schedule: Q01DX010 (ip), vehicle: saline) was 5 of 6. For the same molecule, the survivor count (dose: 8.0 mg/kg/injection, schedule: Q01DX010 (iv), vehicle: saline) was 6 of 6, the survivor count (dose: 8.0 mg/kg/injection, schedule: Q01DX010 (oral), vehicle: saline) was 6 of 6 and the survivor count (dose: 8.0 mg/kg/injection, schedule: Q01DX Z (oral), vehicle: saline) was 6 of 6. For the same molecule, the survivor count (dose: 9.5 mg/kg/injection, schedule: Q01DX006 (iv), vehicle: saline) was 5 of 6, the survivor count (dose: 9.5 mg/kg/injection, schedule: Q01DX Z (sc), vehicle: saline) was 6 of 6 and the T/C (dose: 10.0 mg/kg/injection, schedule: Q01DX001 (oral), vehicle: saline) was 139 % of control. The T/C (dose: 10.0 mg/kg/injection, schedule: Q01DX001 (oral), vehicle: water) was 131 % of control [9 of 10 alive], the survivor count (dose: 10.0 mg/kg/injection, schedule: Q01DX009 (ip), vehicle: saline) was 3 of 3 and 6 of 6 and the T/C (dose: 10.0 mg/kg/injection, schedule: Q04DX002 (ip), vehicle: saline) was 117, 119, 124, 138 % of control. The T/C (dose: 10.0 mg/kg/injection, schedule: Q04DX003 (ip), vehicle: saline) was 144 % of control, the T/C (dose: 10.0 mg/kg/injection, schedule: Q04DX003 (ip), vehicle: water) was 131 and 134 % of control and the T/C (dose: 10.0 mg/kg/injection, schedule: Q08DX002 (ip), vehicle: water) was 140 % of control. The T/C (dose: 10.0 mg/kg/injection, schedule: Q## X002 (ip), vehicle: saline) was 129 % of control, the T/C (dose: 10.0 mg/kg/injection, schedule: Q## X003 (ip), vehicle: saline) was 133 % of control and the T/C (dose: 10.0 mg/kg/injection, schedule: Q## X008 (ip), vehicle: saline) was 137 % of control. The survivor count (dose: 14.5 mg/kg/injection, schedule: Q01DX006 (iv), vehicle: saline) was 6 of 6, the survivor count (dose: 14.5 mg/kg/injection, schedule: Q01DX Z (sc), vehicle: saline) was 4 of 6 and the T/C (dose: 16.0 mg/kg/injection, schedule: Q01DX001 (ip), vehicle: saline, evaluated on day 30) was 134 % of control. The T/C (dose: 16.0 mg/kg/injection, schedule: Q01DX001 (ip), vehicle: saline, run until all animals had died) was 111, 126, 131, 133 % of control, the survivor count (dose: 16.0 mg/kg/injection, schedule: Q01DX009 (ip), vehicle: saline) was 9 of 10 and the survivor count (dose: 16.0 mg/kg/injection, schedule: Q01DX010 (ip), vehicle: saline) was 1 of 6. The survivor count (dose: 16.0 mg/kg/injection, schedule: Q01DX010 (iv), vehicle: saline) was 3 of 6, the survivor count (dose: 16.0 mg/kg/injection, schedule: Q01DX Z (ip), vehicle: saline) was 6 of 6 and the survivor count (dose: 16.0 mg/kg/injection, schedule: Q01DX Z (oral), vehicle: saline) was 6 of 6. The T/C (dose: 16.0 mg/kg/injection, schedule: Q07DX Z (ip), vehicle: saline) was 137 % of control, the T/C (dose: 19.0 mg/kg/injection, schedule: Q01DX001 (ip), vehicle: saline, evaluated on day 5) was 111 and 131 % of control and the T/C (dose: 19.0 mg/kg/injection, schedule: Q01DX001 (ip), vehicle: saline, evaluated on day 45) was 111 % of control. For the same molecule, the T/C (dose: 19.0 mg/kg/injection, schedule: Q01DX001 (ip), vehicle: saline, evaluated on day 60) was 131 % of control, the T/C (dose: 20.0 mg/kg/injection, schedule: Q01DX001 (ip), vehicle: saline) was 146 % of control and the T/C (dose: 20.0 mg/kg/injection, schedule: Q01DX001 (oral), vehicle: water) was 130 and 132 % of control [9 of 10 alive]. For the same molecule, the T/C (dose: 20.0 mg/kg/injection, schedule: Q04DX002 (ip), vehicle: saline) was 128 (2×), 147, 149 % of control, the T/C (dose: 20.0 mg/kg/injection, schedule: Q## X003 (oral), vehicle: saline) was 145 % of control and the T/C (dose: 20.0 mg/kg/injection, schedule: Q## X008 (ip), vehicle: saline) was 128 % of control. The T/C (dose: 20.0 mg/kg/injection, schedule: Q## X008 (oral), vehicle: water) was 140 % of control [9 of 10 alive], the T/C (dose: 20.0 mg/kg/injection, schedule: Q## X024 (ip), vehicle: saline) was 128 % of control and the survivor count (dose: 22.0 mg/kg/injection, schedule: Q01DX006 (iv), vehicle: saline) was 3 of 6. The survivor count (dose: 22.0 mg/kg/injection, schedule: Q01DX Z (sc), vehicle: saline) was 1 of 6, the T/C (dose: 24.0 mg/kg/injection, schedule: Q01DX001 (ip), vehicle: saline, evaluated on day 30) was 145 % of control and the T/C (dose: 24.0 mg/kg/injection, schedule: Q01DX001 (ip), vehicle: saline, run until all animals had died) was 129 % of control. The T/C (dose: 24.0 mg/kg/injection, schedule: Q07DX Z (ip), vehicle: saline) was 149 % of control, the T/C (dose: 25.0 mg/kg/injection, schedule: Q01DX001 (ip), vehicle: saline) was 144 % of control and the T/C (dose: 25.0 mg/kg/injection, schedule: Q04DX002 (ip), vehicle: saline) was 147 % of control. The T/C (dose: 25.0 mg/kg/injection, schedule: Q04DX003 (ip), vehicle: saline) was 146 % of control, the survivor count (dose: 32.0 mg/kg/injection, schedule: Q01DX009 (ip), vehicle: saline) was 9 of 10 and the survivor count (dose: 32.0 mg/kg/injection, schedule: Q01DX010 (iv), vehicle: saline) was 2 of 6. For the same molecule, the T/C (dose: 35.0 mg/kg/injection, schedule: Q01DX001 (ip), vehicle: saline) was 142 % of control, the T/C (dose: 36.0 mg/kg/injection, schedule: Q01DX001 (ip), vehicle: saline, evaluated on day 30) was 130 % of control and the T/C (dose: 36.0 mg/kg/injection, schedule: Q01DX001 (ip), vehicle: saline, run until all animals had died) was 134 % of control. The T/C (dose: 38.0 mg/kg/injection, schedule: Q01DX001 (ip), vehicle: saline, evaluated on day 5) was 120, 144, 187 % of control, the T/C (dose: 38.0 mg/kg/injection, schedule: Q01DX001 (ip), vehicle: saline, evaluated on day 45) was 120 and 144 % of control and the T/C (dose: 38.0 mg/kg/injection, schedule: Q01DX001 (ip), vehicle: saline, evaluated on day 60) was 187 % of control. For the same molecule, the T/C (dose: 40.0 mg/kg/injection, schedule: Q01DX001 (ip), vehicle: saline, evaluated on day 30) was 133, 144, 146 [9 of 10 alive], 156, 157 % of control, the T/C (dose: 40.0 mg/kg/injection, schedule: Q01DX001 (ip), vehicle: saline, evaluated on day 40) was 132 % of control and the survivor count (dose: 40.0 mg/kg/injection, schedule: Q01DX001 (oral), vehicle: saline) was 3 of 10. The T/C (dose: 40.0 mg/kg/injection, schedule: Q01DX001 (oral), vehicle: water) was 140 % of control [9 of 10 alive] and the T/C (dose: 40.0 mg/kg/injection, schedule: Q04DX002 (ip), vehicle: saline) was 143, 163, 164, 179 % of control.
